Test [1] concerns the target cytoplasmic FMRP-interacting protein 2 (CYFIP2), mouse (mouse (endogenous in hippocampus)) (UniProt Q5SQX6). Put plainly: co-IP; crude synaptosomal fraction of mouse hippocampus; anti-CYFIP2 antibody on Protein A Dynabeads, overnight at 4 °C; immunoblot. On the technique in general: In western blotting, separated proteins are transferred to a membrane and probed.
Test [2] has the same target. Briefly: co-IP; total mouse hippocampus homogenate in IP buffer (50 mM Tris pH 7.4, 150 mM NaCl, 1% Triton X-100); anti-CYFIP2 antibody on Protein A Dynabeads, overnight at 4 °C; immunoblot.

Amino acid sequences for entries named in this document (tags omitted).
UniProt Q5SQX6: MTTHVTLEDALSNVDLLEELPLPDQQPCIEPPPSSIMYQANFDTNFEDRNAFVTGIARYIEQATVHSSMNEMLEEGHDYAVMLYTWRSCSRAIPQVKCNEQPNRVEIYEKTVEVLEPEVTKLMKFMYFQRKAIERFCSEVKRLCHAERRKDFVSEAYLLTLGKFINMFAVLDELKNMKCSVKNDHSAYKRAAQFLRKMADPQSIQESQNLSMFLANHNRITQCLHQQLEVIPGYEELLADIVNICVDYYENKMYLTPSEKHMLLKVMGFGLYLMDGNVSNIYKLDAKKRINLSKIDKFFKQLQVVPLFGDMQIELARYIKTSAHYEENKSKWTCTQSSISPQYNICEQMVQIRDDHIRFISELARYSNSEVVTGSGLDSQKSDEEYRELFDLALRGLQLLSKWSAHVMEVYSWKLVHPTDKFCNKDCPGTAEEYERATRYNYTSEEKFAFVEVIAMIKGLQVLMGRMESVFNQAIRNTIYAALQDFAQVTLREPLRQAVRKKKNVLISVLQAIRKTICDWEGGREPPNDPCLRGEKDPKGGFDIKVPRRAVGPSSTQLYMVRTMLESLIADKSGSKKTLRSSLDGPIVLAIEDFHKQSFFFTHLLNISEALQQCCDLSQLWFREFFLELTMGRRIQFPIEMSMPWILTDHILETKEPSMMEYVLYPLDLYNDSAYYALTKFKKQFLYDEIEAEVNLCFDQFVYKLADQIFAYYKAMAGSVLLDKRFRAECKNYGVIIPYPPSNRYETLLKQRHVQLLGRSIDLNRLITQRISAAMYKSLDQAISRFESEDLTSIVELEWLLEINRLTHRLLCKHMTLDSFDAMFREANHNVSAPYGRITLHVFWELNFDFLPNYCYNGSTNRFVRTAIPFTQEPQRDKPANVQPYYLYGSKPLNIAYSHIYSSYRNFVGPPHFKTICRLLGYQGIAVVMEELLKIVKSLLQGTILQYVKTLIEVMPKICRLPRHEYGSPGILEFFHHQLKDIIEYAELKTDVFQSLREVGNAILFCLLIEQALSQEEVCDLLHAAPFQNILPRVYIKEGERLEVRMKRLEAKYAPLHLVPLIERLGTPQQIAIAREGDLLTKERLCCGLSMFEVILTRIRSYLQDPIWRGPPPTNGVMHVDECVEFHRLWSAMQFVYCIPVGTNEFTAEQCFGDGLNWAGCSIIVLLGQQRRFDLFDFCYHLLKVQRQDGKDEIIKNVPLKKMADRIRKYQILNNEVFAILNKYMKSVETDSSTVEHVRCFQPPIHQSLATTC
UniProt P63073: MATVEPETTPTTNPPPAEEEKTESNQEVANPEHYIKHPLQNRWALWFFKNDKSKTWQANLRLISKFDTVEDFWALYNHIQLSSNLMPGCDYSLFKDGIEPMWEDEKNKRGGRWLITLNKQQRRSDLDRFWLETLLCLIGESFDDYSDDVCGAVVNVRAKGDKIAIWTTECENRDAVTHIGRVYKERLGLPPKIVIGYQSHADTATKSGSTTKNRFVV

Results are given in words; binding and its absence hold for the method and conditions named. In cells and extracts the contact can be indirect. Some results given as binding are weak or reduced against the parent protein; the word gives no strength.

As for “eukaryotic initiation factor 4E (eIF4E), mouse (from UniProt P63073 1-217)”, the binding result in test [1] and in test [2] was “binds” in each case.
